Results on 3 substances are retold here after publication PMC6338668.

Chains of the proteins cited; added tags and fusions are not shown. Lines headed by an entry give the natural chain unless they say otherwise; changes in a name come on top. A line that says so, or that is headed by a name, gives the form on record, which may keep a tag or linker. Residues count along the entry.
UniProt P08151: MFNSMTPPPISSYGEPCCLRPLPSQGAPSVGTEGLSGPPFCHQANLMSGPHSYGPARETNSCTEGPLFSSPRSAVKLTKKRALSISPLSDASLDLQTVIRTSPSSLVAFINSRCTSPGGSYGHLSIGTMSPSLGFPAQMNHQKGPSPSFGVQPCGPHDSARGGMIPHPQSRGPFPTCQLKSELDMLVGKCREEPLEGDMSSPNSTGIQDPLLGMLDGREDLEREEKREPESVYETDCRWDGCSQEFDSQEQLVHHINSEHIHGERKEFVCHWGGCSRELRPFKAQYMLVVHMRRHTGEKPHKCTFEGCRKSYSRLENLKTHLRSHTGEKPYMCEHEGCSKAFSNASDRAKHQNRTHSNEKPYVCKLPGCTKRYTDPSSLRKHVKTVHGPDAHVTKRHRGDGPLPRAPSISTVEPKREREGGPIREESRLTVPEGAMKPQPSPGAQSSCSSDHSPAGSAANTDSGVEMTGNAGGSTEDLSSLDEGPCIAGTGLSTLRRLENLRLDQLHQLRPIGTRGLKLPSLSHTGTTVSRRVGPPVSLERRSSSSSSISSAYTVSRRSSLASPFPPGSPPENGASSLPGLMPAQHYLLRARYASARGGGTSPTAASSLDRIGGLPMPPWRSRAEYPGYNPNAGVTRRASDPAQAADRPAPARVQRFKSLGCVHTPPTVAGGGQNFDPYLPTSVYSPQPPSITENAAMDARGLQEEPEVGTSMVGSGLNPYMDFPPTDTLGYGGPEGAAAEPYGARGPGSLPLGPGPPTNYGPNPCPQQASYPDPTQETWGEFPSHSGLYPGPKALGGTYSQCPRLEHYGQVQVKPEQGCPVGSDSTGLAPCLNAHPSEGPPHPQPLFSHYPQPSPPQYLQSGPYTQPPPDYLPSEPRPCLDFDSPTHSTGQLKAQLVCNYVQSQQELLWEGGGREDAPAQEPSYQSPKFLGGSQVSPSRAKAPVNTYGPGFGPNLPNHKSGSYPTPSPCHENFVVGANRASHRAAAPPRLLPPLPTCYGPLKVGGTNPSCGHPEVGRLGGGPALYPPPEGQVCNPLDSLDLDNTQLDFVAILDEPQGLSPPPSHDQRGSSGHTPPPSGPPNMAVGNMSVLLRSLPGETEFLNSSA
GST-GLI1 N-terminal region (1–411 aa): residues 1-411 of P08151
HA-GLI1 with arginine 1018 substituted (arginine to lysine) (P08151, form named): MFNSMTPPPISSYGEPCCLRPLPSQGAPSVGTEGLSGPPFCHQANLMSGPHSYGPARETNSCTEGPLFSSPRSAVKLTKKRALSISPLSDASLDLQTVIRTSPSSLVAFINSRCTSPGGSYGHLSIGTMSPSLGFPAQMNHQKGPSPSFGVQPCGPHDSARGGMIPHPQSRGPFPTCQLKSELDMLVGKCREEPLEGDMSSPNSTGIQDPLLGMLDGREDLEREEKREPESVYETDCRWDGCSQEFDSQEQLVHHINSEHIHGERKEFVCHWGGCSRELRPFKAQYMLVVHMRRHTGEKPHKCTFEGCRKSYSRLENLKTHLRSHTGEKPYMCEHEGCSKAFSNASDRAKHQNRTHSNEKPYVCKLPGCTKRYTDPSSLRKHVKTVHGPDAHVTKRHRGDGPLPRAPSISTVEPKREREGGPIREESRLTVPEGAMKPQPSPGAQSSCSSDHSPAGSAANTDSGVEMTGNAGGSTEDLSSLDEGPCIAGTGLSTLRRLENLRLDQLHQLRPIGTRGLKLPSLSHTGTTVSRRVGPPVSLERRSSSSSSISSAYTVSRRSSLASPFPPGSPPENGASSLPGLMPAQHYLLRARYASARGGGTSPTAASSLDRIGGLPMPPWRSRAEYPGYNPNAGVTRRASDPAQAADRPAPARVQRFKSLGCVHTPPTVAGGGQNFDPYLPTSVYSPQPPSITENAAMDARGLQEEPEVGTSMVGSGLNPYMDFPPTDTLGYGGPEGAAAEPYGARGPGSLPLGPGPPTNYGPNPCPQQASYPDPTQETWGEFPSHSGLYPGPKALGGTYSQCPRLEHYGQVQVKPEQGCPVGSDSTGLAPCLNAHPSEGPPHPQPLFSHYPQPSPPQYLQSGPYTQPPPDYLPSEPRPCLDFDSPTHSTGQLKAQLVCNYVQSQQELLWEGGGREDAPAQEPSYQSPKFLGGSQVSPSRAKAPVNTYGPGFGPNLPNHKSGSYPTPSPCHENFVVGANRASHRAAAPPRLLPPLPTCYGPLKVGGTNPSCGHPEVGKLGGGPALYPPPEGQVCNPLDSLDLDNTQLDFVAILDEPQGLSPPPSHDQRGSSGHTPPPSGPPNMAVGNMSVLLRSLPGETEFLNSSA
HA-GLI1 with arginine 990 substituted (arginine to lysine) (P08151, form named): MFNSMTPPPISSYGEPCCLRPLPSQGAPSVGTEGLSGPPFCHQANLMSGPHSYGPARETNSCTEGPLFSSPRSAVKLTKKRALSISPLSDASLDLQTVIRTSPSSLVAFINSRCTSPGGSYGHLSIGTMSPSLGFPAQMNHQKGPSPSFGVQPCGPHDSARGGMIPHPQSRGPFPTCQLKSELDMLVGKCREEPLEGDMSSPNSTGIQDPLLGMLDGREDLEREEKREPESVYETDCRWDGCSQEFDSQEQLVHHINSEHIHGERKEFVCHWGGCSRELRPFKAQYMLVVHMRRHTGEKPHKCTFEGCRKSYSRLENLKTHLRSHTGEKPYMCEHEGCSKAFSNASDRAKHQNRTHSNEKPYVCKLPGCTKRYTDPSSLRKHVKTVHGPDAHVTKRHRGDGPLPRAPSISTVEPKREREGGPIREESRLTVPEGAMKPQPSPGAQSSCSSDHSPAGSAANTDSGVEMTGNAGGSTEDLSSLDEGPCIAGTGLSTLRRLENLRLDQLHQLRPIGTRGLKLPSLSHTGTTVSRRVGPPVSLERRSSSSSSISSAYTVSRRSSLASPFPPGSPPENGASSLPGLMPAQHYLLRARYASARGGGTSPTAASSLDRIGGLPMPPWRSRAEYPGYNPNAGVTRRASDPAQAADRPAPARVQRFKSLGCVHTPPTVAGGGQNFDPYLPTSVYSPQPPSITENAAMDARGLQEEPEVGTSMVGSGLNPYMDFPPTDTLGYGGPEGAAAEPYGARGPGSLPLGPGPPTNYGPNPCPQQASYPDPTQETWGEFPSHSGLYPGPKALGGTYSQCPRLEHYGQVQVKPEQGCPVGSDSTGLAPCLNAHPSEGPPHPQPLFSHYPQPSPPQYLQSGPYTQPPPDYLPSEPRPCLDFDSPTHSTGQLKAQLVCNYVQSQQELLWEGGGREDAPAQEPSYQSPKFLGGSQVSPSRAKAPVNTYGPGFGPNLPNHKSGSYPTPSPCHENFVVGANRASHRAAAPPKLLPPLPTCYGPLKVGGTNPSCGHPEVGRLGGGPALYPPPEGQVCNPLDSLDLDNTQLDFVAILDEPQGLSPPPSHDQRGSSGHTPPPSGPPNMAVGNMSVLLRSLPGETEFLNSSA
HA-GLI1 with arginines 990 and 1018 both substituted (arginine to lysine) (P08151, form named): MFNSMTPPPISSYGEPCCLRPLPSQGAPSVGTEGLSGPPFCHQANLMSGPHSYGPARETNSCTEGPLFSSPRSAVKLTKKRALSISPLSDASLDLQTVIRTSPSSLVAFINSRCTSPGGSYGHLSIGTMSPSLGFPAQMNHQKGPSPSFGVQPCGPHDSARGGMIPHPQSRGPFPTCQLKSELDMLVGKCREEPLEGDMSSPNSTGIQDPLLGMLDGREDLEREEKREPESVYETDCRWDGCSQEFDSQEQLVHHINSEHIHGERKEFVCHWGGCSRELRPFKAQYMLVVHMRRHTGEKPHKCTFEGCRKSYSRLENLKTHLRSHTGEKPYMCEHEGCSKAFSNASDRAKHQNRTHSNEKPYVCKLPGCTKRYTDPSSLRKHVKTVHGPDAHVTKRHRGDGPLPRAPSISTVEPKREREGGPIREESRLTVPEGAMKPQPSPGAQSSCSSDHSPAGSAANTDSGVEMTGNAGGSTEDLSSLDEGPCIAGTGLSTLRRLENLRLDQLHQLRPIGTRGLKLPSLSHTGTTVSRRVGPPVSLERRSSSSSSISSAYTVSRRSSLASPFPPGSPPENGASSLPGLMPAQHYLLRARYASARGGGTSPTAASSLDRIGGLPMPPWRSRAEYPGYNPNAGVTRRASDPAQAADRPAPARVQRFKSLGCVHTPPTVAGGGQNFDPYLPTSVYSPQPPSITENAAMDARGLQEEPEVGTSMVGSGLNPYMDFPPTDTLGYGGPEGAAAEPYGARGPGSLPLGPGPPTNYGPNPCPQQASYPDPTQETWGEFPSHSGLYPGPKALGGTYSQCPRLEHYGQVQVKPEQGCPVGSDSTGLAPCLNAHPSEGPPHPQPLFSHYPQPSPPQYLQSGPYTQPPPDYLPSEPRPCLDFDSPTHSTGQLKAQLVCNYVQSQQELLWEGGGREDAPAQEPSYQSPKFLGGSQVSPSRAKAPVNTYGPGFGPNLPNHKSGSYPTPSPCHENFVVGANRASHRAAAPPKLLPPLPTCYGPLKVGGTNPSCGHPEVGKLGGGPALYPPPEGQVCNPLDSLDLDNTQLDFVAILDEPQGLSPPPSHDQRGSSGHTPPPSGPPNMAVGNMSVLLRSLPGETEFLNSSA
UniProt Q99J09: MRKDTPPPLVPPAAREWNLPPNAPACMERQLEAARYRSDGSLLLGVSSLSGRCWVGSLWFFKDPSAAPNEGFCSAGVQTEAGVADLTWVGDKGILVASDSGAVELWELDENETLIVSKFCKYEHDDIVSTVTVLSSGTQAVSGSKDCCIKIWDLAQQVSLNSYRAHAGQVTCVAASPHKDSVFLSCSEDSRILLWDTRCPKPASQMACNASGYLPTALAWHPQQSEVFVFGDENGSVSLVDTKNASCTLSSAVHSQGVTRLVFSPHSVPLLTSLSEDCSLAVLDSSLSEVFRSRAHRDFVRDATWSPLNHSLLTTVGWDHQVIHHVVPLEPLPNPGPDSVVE
UniProt Q8C863: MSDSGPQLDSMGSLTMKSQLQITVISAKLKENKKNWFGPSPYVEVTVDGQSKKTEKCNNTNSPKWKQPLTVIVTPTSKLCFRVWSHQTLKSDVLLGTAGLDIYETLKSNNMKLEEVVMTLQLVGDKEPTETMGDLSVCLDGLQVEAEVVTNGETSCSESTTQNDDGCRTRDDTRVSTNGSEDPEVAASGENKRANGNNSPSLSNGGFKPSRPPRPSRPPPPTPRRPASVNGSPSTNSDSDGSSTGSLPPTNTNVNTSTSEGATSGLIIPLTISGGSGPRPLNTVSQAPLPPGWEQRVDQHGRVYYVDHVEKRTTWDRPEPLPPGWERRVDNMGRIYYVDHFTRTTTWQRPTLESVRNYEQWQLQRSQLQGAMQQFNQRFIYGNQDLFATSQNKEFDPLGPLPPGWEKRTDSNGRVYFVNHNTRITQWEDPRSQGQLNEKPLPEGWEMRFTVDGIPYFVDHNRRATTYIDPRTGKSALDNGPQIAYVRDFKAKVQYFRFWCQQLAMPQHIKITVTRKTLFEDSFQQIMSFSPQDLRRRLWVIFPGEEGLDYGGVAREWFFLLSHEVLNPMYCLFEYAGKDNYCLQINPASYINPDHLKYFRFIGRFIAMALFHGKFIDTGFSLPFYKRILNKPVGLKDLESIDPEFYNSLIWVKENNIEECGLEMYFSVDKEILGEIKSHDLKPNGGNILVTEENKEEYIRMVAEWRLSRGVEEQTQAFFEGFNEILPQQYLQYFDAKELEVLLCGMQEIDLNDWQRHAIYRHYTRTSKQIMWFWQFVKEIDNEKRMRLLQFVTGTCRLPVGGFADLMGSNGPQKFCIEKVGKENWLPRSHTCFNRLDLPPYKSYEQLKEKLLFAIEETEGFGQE
UniProt Q9BQA1: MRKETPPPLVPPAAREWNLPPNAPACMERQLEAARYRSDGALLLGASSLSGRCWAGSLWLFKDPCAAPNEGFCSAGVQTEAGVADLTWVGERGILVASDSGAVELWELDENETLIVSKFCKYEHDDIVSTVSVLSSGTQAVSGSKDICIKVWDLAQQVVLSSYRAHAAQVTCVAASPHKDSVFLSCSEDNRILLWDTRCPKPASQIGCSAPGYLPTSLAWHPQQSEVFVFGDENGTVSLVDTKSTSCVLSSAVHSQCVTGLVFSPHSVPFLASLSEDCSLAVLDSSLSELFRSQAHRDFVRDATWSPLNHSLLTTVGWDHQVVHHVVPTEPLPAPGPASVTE

Experiment [1] deals with GLI1 in stably PRMT5-knockdown or MEP50-knockdown C3H10T1/2 cells (Fig. 5a) (UniProt P08151). As to the kind of experiment: co-IP; stably PRMT5-knockdown or MEP50-knockdown C3H10T1/2 cells (siPRMT5-m2, siMEP50-m2) and control; 50 μM MG132 for 4 h before harvesting; GLI1 with endogenous ITCH or NUMB.
Experiment [2] addresses HA-GLI1 with arginine 1018 substituted (arginine to lysine) (UniProt P08151). As to the kind of experiment: co-IP; C3H10T1/2 cells transfected with HA-GLI1 mutants, 48 h, then 50 μM MG132 for 4 h; immunoprecipitation with anti-HA, immunoblot for endogenous ITCH and NUMB. (In general: A western blot detects proteins with antibodies after separation by electrophoresis.)
Experiment [3] has as its target HA-GLI1 with arginine 990 substituted (arginine to lysine) (UniProt P08151). The description is as above.
Experiment [4] deals with HA-GLI1 with arginines 990 and 1018 both substituted (arginine to lysine) (UniProt P08151). The experiment is described as above.
Experiment [5] deals with GST-GLI1 N-terminal region (1–411 aa) (UniProt P08151). As to the kind of experiment: pull-down; GST-GLI1 deletion mutants coupled to glutathione sepharose incubated with Myc-MEP50 immunoprecipitated (purified) from HEK293T cells; immunoblot with anti-Myc; both purified.
The target of experiment [6] is FLAG-tagged GLI1 expressed in HEK293T cells (UniProt P08151). As to the kind of experiment: co-IP; HEK293T cells transfected with Myc-MEP50 or its deletion mutants and FLAG-GLI1 for 24 h; immunoprecipitation with anti-FLAG (legend; the text says anti-Myc), immunoblot with anti-FLAG and anti-Myc.
Experiment [7] has as its target MEP50, endogenous in C3H10T1/2 cells (mouse (endogenous in C3H10T1/2)) (UniProt Q99J09). Description: co-IP; endogenous proteins of C3H10T1/2 cells treated with SAG for 36 h; immunoprecipitation with anti-PRMT5 (D5P2T), anti-MEP50 (EPR10708 [B]) or anti-GLI1 (V812), immunoblot; also in stable MEP50 knockdown cells (siMEP50-m2), SAG 48 h and 50 μM MG132 4 h.

These are yes or no findings as the source states them, for the method shown. For some of these results: Binding seen in cells or lysates may run through a third protein. Some results given as binding are weak or reduced against the parent protein; the word gives no strength.

For the substance “ITCH/NUMB ubiquitin ligase complex, endogenous in C3H10T1/2 cells (from UniProt Q8C863 1-864; Q9QZS3 1-653)”, the binding entry in experiment [1], in experiment [2], in experiment [3] and in experiment [4] was “binds” throughout.

Turning to “Myc-tagged MEP50 (from UniProt Q9BQA1 1-342)”, the binding entry in experiment [5] and in experiment [6] was “binds” throughout.

Turning to “GLI1, endogenous in C3H10T1/2 cells (from UniProt P47806 1-1111)”, the binding result in experiment [7] is reported as “binds”.
